Experimental data: PubChem BioAssay AID504744 (Drosophila RNAi Screening Center, 2011)

Test: 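Identify dsRNAs that increase or decrease phospho-dAkt after insulin treatment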 (primary screen)
Cells: Drosophila Kc167 cells
Reagents: long dsRNA against Drosophila genes, 250 ng dsRNA per well of a 384-well plate
Timing: 3 days of knock-down, then overnight serum-free starvation before stimulation
Treatment: bovine insulin at 387 nM for 10 minutes after 12 h without serum
Detection: 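In-cell antibody fluorescence for phospho-dAkt in each well over DNA-dye signal, with log2 residuals expressed as z-scores adjusted for cell count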
Hit rule: 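Under insulin, a gene counts as a hit if the average z-score of two replicates lies above 2.5 or below -2.5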
In all, the deposit lists about 23,000 reagents; shown is a random part of those with a known target gene and a result. Over the whole deposit, 98 (0.43%) got an active call. 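Only hit calls are given; the phospho-dAkt signals, z-scores and hit direction were not deposited.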 The numbers tell different reagents against one gene apart. Names joined by + are all predicted targets of the reagent.

For mira, how do the results read?
call: inactive

With Su(var)3-7, how do the results read?
call: inactive

How did the screen score SelT?
call: inactive

For aPKC #1, how do the results read?
call: inactive

How did the screen score aPKC #2?
call: inactive

What is on record for Mad1?
call: inactive

For prom #1, how do the results read?
call: inactive

For prom #2, what does the deposit list?
call: inactive

For prom #3, what was measured?
call: inactive

How did the screen score MICU3 #1?
call: inactive

With MICU3 #2, what does the deposit list?
call: inactive

With fs(2)ltoPP43, what does the deposit list?
call: inactive

For Tango10, how do the results read?
call: inactive

How did the screen score CG5532?
call: inactive

Which result is listed for CG9643?
call: inactive

Which result is listed for GlcAT-S?
call: inactive

What is on record for CG8229?
call: inactive

For CG9951, how do the results read?
call: inactive

Which result is listed for CG14929 + CG4970 #1?
call: inactive

What is on record for CG14929 + CG4970 #2?
call: inactive

What is on record for CG13653?
call: inactive

What did the screen give for List?
call: inactive

With AP-1sigma, how do the results read?
call: inactive

How did the screen score htt?
call: inactive

For Gdap2 #1, how do the results read?
call: inactive

How did the screen score Gdap2 #2?
call: inactive

With S1P, how do the results read?
call: inactive

What did the screen give for CG15306 #1?
call: inactive

What is on record for CG15306 #2?
call: inactive

With exd, what was measured?
call: inactive

How did the screen score CG2604?
call: inactive

How did the screen score CG12620?
call: inactive

What did the screen give for Amph?
call: inactive

Which result is listed for Frmd5?
call: inactive

With CG11581, what was measured?
call: inactive

With CG14767, what was measured?
call: inactive

For Cyp4e1, what does the deposit list?
call: inactive

With CG16854, what does the deposit list?
call: inactive

Which result is listed for Src42A?
call: inactive

For CG8768, how do the results read?
call: inactive

How did the screen score alpha-Man-IIb?
call: inactive

What did the screen give for CG2608?
call: inactive

For CG6569, what was measured?
call: inactive

Which result is listed for QIL1?
call: inactive

For Vps35, what does the deposit list?
call: inactive

Which result is listed for Hydr2?
call: inactive

With CG7203, what was measured?
call: inactive

Which result is listed for Edg84A?
call: inactive

Which result is listed for Samtor?
call: inactive

With CG1703, how do the results read?
call: inactive

What is on record for clumsy?
call: inactive

For Rme-8, what was measured?
call: inactive

For alka, what was measured?
call: inactive

For E(spl)m4-BFM, what was measured?
call: inactive

For CG3062, what was measured?
call: inactive

What did the screen give for CG7882?
call: inactive

With CG15293, how do the results read?
call: inactive

Targets listed so far whose target name starts with E or e (3):
exd → call = inactive
Edg84A → call = inactive
E(spl)m4-BFM → call = inactive
